# Values joined by “and” are separate entries in the source; they are usually repeats but may differ in a detail not shown here. Equal entries are not always repeated. Part of at least one peptide drawing is inferred or uncertain, most often the ends. No end group written: not given here.
# Tested on: human CD14+ monocytes
# Experiment: Human 21K DNA microarrays of CD14+ monocytes from PBMC stimulated with SEQ ID NO: 7 and/or LPS (Tables 69-72)
# Assay type: cell-based
sequence,measurement,setting,value
KSRIVPAIPVSLL [SEQ ID NO: 7],Fold Change by LPS + SEQ 7,gene NPC1L1,1.5 fold
same,Fold Change by LPS + SEQ 7,"gene NPR1, human monocytes",3.0 fold
same,Fold Change by LPS + SEQ 7,gene NPTX1,−1.7 fold
same,Fold Change by LPS + SEQ 7,"gene NR2F2, human monocytes",32.7 fold
same,Fold Change SEQ ID NO: 7,gene NR4A1,−4.2
same,Fold Change by LPS + SEQ 7,gene NR4A3,1.9 fold
same,Fold Change by LPS + SEQ 7,gene NRCAM,−1.6 fold
same,Fold Change by LPS + SEQ 7,"gene NRG1, human monocytes",5.8 fold
same,Fold Change SEQ ID NO: 7,gene NRIP1,−1.7
same,Fold Change by LPS + SEQ 7,"gene NRXN1, human monocytes",25.9 fold
same,Fold Change by LPS + SEQ 7,"gene NSF, human monocytes",8.0 fold
same,Fold Change SEQ ID NO: 7,gene NSMAF,2.2
same,Fold Change by LPS + SEQ 7,gene NSMAF,1.9 fold
same,Fold Change by LPS + SEQ 7,gene NTN4,1.7 fold
same,Fold Change by LPS + SEQ 7,gene NTRK2,1.7 fold
same,Fold Change SEQ ID NO: 7,gene NTRK3,1.7
same,Fold Change by LPS + SEQ 7,gene NUP62,1.6 fold
same,Fold Change by LPS + SEQ 7,gene O00581,1.7 fold
same,Fold Change by LPS + SEQ 7,gene O14562,1.7 fold
same,Fold Change SEQ ID NO: 7,gene O14804,−1.9
same,Fold Change SEQ ID NO: 7,gene O14950,2.2
same,Fold Change by LPS + SEQ 7,"gene O14950, human monocytes",2.3 fold
same,Fold Change SEQ ID NO: 7,gene O15069,2.0
same,Fold Change by LPS + SEQ 7,gene O15069,2.1 fold
same,Fold Change by LPS + SEQ 7,"gene O43300, human monocytes",77.1 fold
same,Fold Change by LPS + SEQ 7,"gene O43348, human monocytes",51.7 fold
same,Fold Change by LPS + SEQ 7,"gene O60290, human monocytes",2.9 fold
same,Fold Change by LPS + SEQ 7,"gene O60384, human monocytes",9.9 fold
same,Fold Change SEQ ID NO: 7,gene O60844,1.8
same,Fold Change by LPS + SEQ 7,gene O75121,1.6 fold
same,Fold Change by LPS + SEQ 7,gene O75915,−3.3 fold
same,Fold Change SEQ ID NO: 7,gene O76052,1.6
same,Fold Change SEQ ID NO: 7,gene O94940,1.5
same,Fold Change by LPS + SEQ 7,gene O94940,1.6 fold
same,Fold Change SEQ ID NO: 7,gene O94948,−1.7
same,Fold Change SEQ ID NO: 7,gene O95053,1.6
same,Fold Change by LPS + SEQ 7,gene O95510,−1.9 fold
same,Fold Change SEQ ID NO: 7,gene O95792,−1.7
same,Fold Change by LPS + SEQ 7,gene OASL,2.0 fold
same,Fold Change by LPS + SEQ 7,gene OAZIN,2.1 fold
same,Fold Change by LPS + SEQ 7,"gene OCLN, RPS27, human monocytes",4.1 fold
same,Fold Change by LPS + SEQ 7,gene ODC1,1.7 fold
same,Fold Change by LPS + SEQ 7,"gene ODZ1, human monocytes",2.3 fold
same,Fold Change by LPS + SEQ 7,"gene ONECUT2, human monocytes",3.8 fold
same,Fold Change by LPS + SEQ 7,"gene OR1F2, human monocytes",2.9 fold
same,Fold Change by LPS + SEQ 7,gene OR5A2,−1.7 fold
same,Fold Change by LPS + SEQ 7,"gene OR5P2, human monocytes",17.1 fold
same,Fold Change by LPS + SEQ 7,"gene OR5U1, human monocytes",23.8 fold
same,Fold Change by LPS + SEQ 7,"gene OR7A5, human monocytes",2.3 fold
same,Fold Change by LPS + SEQ 7,gene OR8B8,2.1 fold
same,Fold Change by LPS + SEQ 7,"gene OSBPL7, human monocytes",11.9 fold
same,Fold Change by LPS + SEQ 7,gene OSBPL11,−1.6 fold
same,Fold Change SEQ ID NO: 7,gene OSGEPL1,2.2
same,Fold Change by LPS + SEQ 7,gene OVOL1,−1.6 fold
same,Fold Change by LPS + SEQ 7,gene OXA1L,1.8 fold
same,Fold Change by LPS + SEQ 7,gene P2RY5,−2.5 fold
same,Fold Change SEQ ID NO: 7,gene PAIP2,2.1
same,Fold Change by LPS + SEQ 7,"gene PAK2, human monocytes",5.0 fold
same,Fold Change SEQ ID NO: 7,gene PANK2,2.0
same,Fold Change SEQ ID NO: 7,gene PANK3,2.8
same,Fold Change by LPS + SEQ 7,"gene PANK3, human monocytes",2.6 fold
same,Fold Change by LPS + SEQ 7,gene PAPOLB,2.0 fold and 1.5 fold
same,Fold Change by LPS + SEQ 7,gene PAPOLG,2.3 fold
same,Fold Change by LPS + SEQ 7,gene PAPPA,−1.8 fold
same,Fold Change by LPS + SEQ 7,gene PARD3,−1.6 fold
same,Fold Change by LPS + SEQ 7,gene PARVA,−1.6 fold
same,Fold Change by LPS + SEQ 7,gene PAX4,1.7 fold
same,Fold Change SEQ ID NO: 7,gene PCBD,1.7
same,Fold Change by LPS + SEQ 7,gene PCBD,1.6 fold
same,Fold Change by LPS + SEQ 7,"gene PCCB, human monocytes",4.7 fold
same,Fold Change SEQ ID NO: 7,gene PCDH9,−1.9
same,Fold Change by LPS + SEQ 7,gene PCDHB10,1.8 fold
same,Fold Change SEQ ID NO: 7,gene PCLO,2.0
same,Fold Change by LPS + SEQ 7,gene PDCD1LG1,1.6 fold
same,Fold Change SEQ ID NO: 7,gene PELI1,1.9
same,Fold Change by LPS + SEQ 7,gene PELI1,2.2 fold
same,Fold Change SEQ ID NO: 7,gene PET112L,2.3
same,Fold Change by LPS + SEQ 7,gene PFKFB3,1.5 fold
same,Fold Change by LPS + SEQ 7,gene PGLYRP1,−1.5 fold
same,Fold Change by LPS + SEQ 7,gene PHF5A,−1.7 fold
same,Fold Change by LPS + SEQ 7,"gene PHLDA2, human monocytes",3.1 fold
same,Fold Change by LPS + SEQ 7,gene PHLDB1,1.6 fold
same,Fold Change SEQ ID NO: 7,gene PHLDB2,1.5
same,Fold Change by LPS + SEQ 7,gene PHTF1,−2.6 fold
same,Fold Change by LPS + SEQ 7,gene PIK3C2B,−1.6 fold
same,Fold Change by LPS + SEQ 7,gene PIK4CB,1.8 fold
same,Fold Change by LPS + SEQ 7,gene PIM2,1.6 fold
same,Fold Change by LPS + SEQ 7,"gene PIP5K1B, human monocytes",3.4 fold
same,Fold Change by LPS + SEQ 7,gene PIP5K2C,1.8 fold
same,Fold Change by LPS + SEQ 7,gene PIP5K3,2.0 fold

# Source: patent US20070134261A1, “Effectors of innate immunity” (priority 2001, published 2007)
